No constants are given. Whether binding was seen depends on the method and setting. Binding seen in cells or lysates may run through a third protein. These calls come from enrichment with a bait or labelling near it, and not all partners need be listed. Where a sequence is shown, tags or fusion partners need not be part of it.
Target: T1, Flag-tagged U2AF1a (endogenous, U2af1a-only Tsc1-/- MEF cell line) (mouse (endogenous in Tsc1-/- MEFs)) (UniProt Q9D883)
T1 sequence: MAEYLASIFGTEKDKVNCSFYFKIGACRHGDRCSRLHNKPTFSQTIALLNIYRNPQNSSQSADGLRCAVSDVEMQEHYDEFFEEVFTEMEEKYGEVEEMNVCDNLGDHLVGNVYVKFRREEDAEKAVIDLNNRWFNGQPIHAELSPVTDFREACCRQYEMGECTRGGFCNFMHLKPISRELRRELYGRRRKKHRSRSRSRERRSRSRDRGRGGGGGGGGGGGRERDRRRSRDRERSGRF
Assay: affinity purification with mass spectrometry; cells cross-linked with 0.2% formaldehyde for 10 min; lysis buffer with 300 mM NaCl, 0.5% Empigen, 0.5% NP-40; anti-Flag M2 magnetic beads, in the presence of RNase A, eluted with 3x Flag peptide; label-free quantification against a control Flag-IP

Sequences of proteins named here, by UniProt entry; tags and fusion partners are left off.
UniProt P26369: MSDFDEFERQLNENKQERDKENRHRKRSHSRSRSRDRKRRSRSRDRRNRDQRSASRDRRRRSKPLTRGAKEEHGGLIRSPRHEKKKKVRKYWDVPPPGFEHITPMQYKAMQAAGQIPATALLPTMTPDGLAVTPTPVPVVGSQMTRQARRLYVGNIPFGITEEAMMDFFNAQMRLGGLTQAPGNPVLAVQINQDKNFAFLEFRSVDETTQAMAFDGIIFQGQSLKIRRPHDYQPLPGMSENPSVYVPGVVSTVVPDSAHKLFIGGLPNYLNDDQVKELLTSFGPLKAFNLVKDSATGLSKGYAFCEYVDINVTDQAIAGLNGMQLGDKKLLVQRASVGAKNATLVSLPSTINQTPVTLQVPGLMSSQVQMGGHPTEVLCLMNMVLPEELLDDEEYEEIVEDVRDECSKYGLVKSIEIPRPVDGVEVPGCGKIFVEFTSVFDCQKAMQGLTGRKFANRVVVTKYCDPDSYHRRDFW

U2AF2 (from UniProt P26369 1-475)
binding: binds
